# Source: paper PMC7819943, “Rice protein-binding microarrays: a tool to detect cis-acting elements near promoter regions in rice”
# The chains behind the UniProt entries cited, without tags or fusion partners.
# UniProt Q0JBA9, entry or part of it: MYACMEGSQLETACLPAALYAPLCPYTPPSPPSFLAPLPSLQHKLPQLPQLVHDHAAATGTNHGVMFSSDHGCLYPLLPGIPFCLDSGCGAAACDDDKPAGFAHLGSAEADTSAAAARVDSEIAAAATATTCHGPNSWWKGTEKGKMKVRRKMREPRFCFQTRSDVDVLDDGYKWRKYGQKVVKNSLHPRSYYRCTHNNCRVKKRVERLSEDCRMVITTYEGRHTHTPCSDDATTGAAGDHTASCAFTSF
# The list shows a part of the results.
# Molecular target: OsWRKY34 (Oryza sativa, UniProt Q0JBA9 1-250)
# Test: protein-binding microarray (RPBM); PBS, 2% BSA, 51.3 ng/ul salmon testes DNA, 50 uM zinc acetate, 200 nM TF, 25 C, 1 h; high values mean tight binding
# Conditions: protein: recombinant; tags: N-terminal polyhistidine and DsRed monomer fusion (pET32a); label: CyDye5-dUTP incorporated in the synthesized complementary strand; 3' TTTTT single-stranded linker to array surface; dsDNA, one strand shown
# Summary of the method: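 Transcription factors, each fused N-terminally to a polyhistidine tag and DsRed, were expressed in E. coli BL21-CodonPlus and purified on Ni–NTA. A custom Agilent array was made double-stranded by primer extension with Cy5-dUTP and blocked with 2% BSA. It was incubated with 200 nM protein in PBS, 2% BSA, salmon testes DNA and 50 µM zinc acetate at 25 °C for 1 h, then washed. The binding signal is per-feature fluorescence intensity (arbitrary units) read on an Axon 4000B scanner.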
row,Sequence,binding signal
1,CACTGTCATTTCTTCCTTGCTTGCTTGTATAAACCTTGAACGGAGTCACCTAGTGCAG,13500 fluorescence intensity (a.u.)
2,AACAACTTAATTTCCCTTTTTCCAGTTGATAACGTGCAATCGGAGTCACCTAGTGCAG,8040 fluorescence intensity (a.u.)
3,CCCTATCAACTTCCCACCCACATCCACCGAAGGCACAGCACGGAGTCACCTAGTGCAG,8040 fluorescence intensity (a.u.)
4,ACAACCGCATCCGATTCCATGGCCCAACCGCGCGCGCGCACGGAGTCACCTAGTGCAG,9170 fluorescence intensity (a.u.)
5,ATTGTTCTCACAGCTCATTACACATAGCCCGCTCGGTCATCGGAGTCACCTAGTGCAG,9130 fluorescence intensity (a.u.)
6,TATCCACATACCACCTCTCCATTGGACCACAGTTTCTCTCCGGAGTCACCTAGTGCAG,8340 fluorescence intensity (a.u.)
7,TCAGTGTTGAGTAGGGTTGGCAGGCGAGCACGCAGTAATGCGGAGTCACCTAGTGCAG,8190 fluorescence intensity (a.u.)
8,GCCTTTTTCTTGCGTGTAGGTTGTTCTGTTGAGAGAAAGACGGAGTCACCTAGTGCAG,17700 fluorescence intensity (a.u.)
9,CATATATAAATCGTACGTACTCAGGGTGTTGGGCAGATCACGGAGTCACCTAGTGCAG,8192 fluorescence intensity (a.u.)
10,AGGTTGGTAACTCGTAGCTGGGCATTGTCACTTCTTGTTCCGGAGTCACCTAGTGCAG,11700 fluorescence intensity (a.u.)
11,GATGCGGGTCGGGGAGATCGGGGATTTGAGGGCAGCGGGACGGAGTCACCTAGTGCAG,9890 fluorescence intensity (a.u.)
12,GCTTTTCAGCTTTCTAGGACAGCATCTCTACTTTCAGTTTCGGAGTCACCTAGTGCAG,8610 fluorescence intensity (a.u.)
13,CTGGTTTTTAAGTTCGCTTTTTAGATTTTGTTACTATATACGGAGTCACCTAGTGCAG,9930 fluorescence intensity (a.u.)
14,CCTCACGGATAAGGGCGGGATGTTTTCGGCCGAAACCGTGCGGAGTCACCTAGTGCAG,8050 fluorescence intensity (a.u.)
15,CTTTCGTACGACTCGTCATTATCACCGTGTCTCTCGTAAGCGGAGTCACCTAGTGCAG,8040 fluorescence intensity (a.u.)
16,ATCCGGTTTACACCATTTTACTCGTGTCCTATTTTTACCGCGGAGTCACCTAGTGCAG,11600 fluorescence intensity (a.u.)
17,ACGCCGGTCATCCTCATCTGCTGCTTCTTCCACAATAGATCGGAGTCACCTAGTGCAG,9110 fluorescence intensity (a.u.)
18,CCACGCCACGCCACGCCACCTTGCGCGCGCGCGCGCACACCGGAGTCACCTAGTGCAG,9410 fluorescence intensity (a.u.)
19,CCGGTGGTCCTGGTGGTGGTTGTGTTTGTCGGCGTTGTGGCGGAGTCACCTAGTGCAG,9470 fluorescence intensity (a.u.)
20,AAATTTTTATATGCTGTGTATTTTCTATTTTTTTTATTTTCGGAGTCACCTAGTGCAG,11100 fluorescence intensity (a.u.)
21,ATTGTATTTCTATATGGACTCTGCTTTTTATTTTTCTCCGCGGAGTCACCTAGTGCAG,8930 fluorescence intensity (a.u.)

# 6 entries from above, bar-delimited:
row | Sequence | binding signal
5 | ATTGTTCTCACAGCTCATTACACATAGCCCGCTCGGTCATCGGAGTCACCTAGTGCAG | 9130 fluorescence intensity (a.u.)
6 | TATCCACATACCACCTCTCCATTGGACCACAGTTTCTCTCCGGAGTCACCTAGTGCAG | 8340 fluorescence intensity (a.u.)
13 | CTGGTTTTTAAGTTCGCTTTTTAGATTTTGTTACTATATACGGAGTCACCTAGTGCAG | 9930 fluorescence intensity (a.u.)
16 | ATCCGGTTTACACCATTTTACTCGTGTCCTATTTTTACCGCGGAGTCACCTAGTGCAG | 11600 fluorescence intensity (a.u.)
18 | CCACGCCACGCCACGCCACCTTGCGCGCGCGCGCGCACACCGGAGTCACCTAGTGCAG | 9410 fluorescence intensity (a.u.)
21 | ATTGTATTTCTATATGGACTCTGCTTTTTATTTTTCTCCGCGGAGTCACCTAGTGCAG | 8930 fluorescence intensity (a.u.)

# Next part:

row,Sequence,binding signal
1,TTGTGGCAATGGCGGCGGTGGCGGTGGCGGTTGGGGTGGCCGGAGTCACCTAGTGCAG,11500 fluorescence intensity (a.u.)
2,CCACCGCCGTTAGCTTCGCCGCACCACATAGCACCCCGGCCGGAGTCACCTAGTGCAG,8850 fluorescence intensity (a.u.)
3,ATGCTCAAACTAAGCTCACACCGCACTTCACATATACTCACGGAGTCACCTAGTGCAG,8420 fluorescence intensity (a.u.)
4,GAAATTTCCTTCCTTGTTTCTCAGCGCATGTTTAAATAGCCGGAGTCACCTAGTGCAG,10100 fluorescence intensity (a.u.)
5,CTTTATTAACGGTGTGGGGACTGGGGATTGGCTGAGGACGCGGAGTCACCTAGTGCAG,8900 fluorescence intensity (a.u.)
6,ACGCCTACCACACTACTACCACATTTCATCGATCCATCAGCGGAGTCACCTAGTGCAG,13300 fluorescence intensity (a.u.)
7,CTCTCTTCTCCGGCGTCCATAAATACCAGCGCCACCCTCCCGGAGTCACCTAGTGCAG,8920 fluorescence intensity (a.u.)
8,CTTTCTCCTACCCAAATCCATCCACCCAACATCTTTTTTCCGGAGTCACCTAGTGCAG,9550 fluorescence intensity (a.u.)
9,TTGATATTTATTTTCCCTGGCGGTTGTTAGGTTTTCGCATCGGAGTCACCTAGTGCAG,8240 fluorescence intensity (a.u.)
10,ACACTCTTTTTTTTCACTGAACCGAACCATTATCTGCCAACGGAGTCACCTAGTGCAG,9640 fluorescence intensity (a.u.)
11,TTGCCGCCACCTCCTCCTCGCGACACCGCTCGCCGTCGGTCGGAGTCACCTAGTGCAG,8750 fluorescence intensity (a.u.)
12,TATTTGACGCCGTTGATTTTTTTAAATATGTTTGACCGTTCGGAGTCACCTAGTGCAG,11000 fluorescence intensity (a.u.)
13,AAGGGCAGAGGAGAGGAGTTGCAGTGTGGTGTGTGGCATGCGGAGTCACCTAGTGCAG,8870 fluorescence intensity (a.u.)
14,GCCAGCTTGTCCTCACATGAACAGTTAGTCAACCCCAACACGGAGTCACCTAGTGCAG,9300 fluorescence intensity (a.u.)
15,ACTCTTCTTTTAATCAGCTTTGCTAATCCAGCCTGGAAGACGGAGTCACCTAGTGCAG,9220 fluorescence intensity (a.u.)
16,TAGTTATTCCGCTATTGTACCTGCTCTTACCTCTCCCTAACGGAGTCACCTAGTGCAG,11500 fluorescence intensity (a.u.)
17,CCGTACCATGAGTTGTCCTGCTGTGCATATAAAACTGCCACGGAGTCACCTAGTGCAG,8400 fluorescence intensity (a.u.)
18,TTGTAGGGTGGGGTTCACTGGACGTTGGAAAAAGTACGAACGGAGTCACCTAGTGCAG,10800 fluorescence intensity (a.u.)
19,TGTTGCTGTGTCGTGTGGTCGTGACTCGTGTGACTCGGTGCGGAGTCACCTAGTGCAG,8870 fluorescence intensity (a.u.)
20,TACACACAACTTTTCAGTCACATCGTACCAATTTCAACCCCGGAGTCACCTAGTGCAG,8380 fluorescence intensity (a.u.)
21,ACGTTTTTCATATTCCTGTGTTTTTCCTATCCTGCGTTTCCGGAGTCACCTAGTGCAG,10900 fluorescence intensity (a.u.)

row,Sequence,binding signal
1,ATTTTAGTCACCTTGTCTCCTATAAAATCCTCACCTTTTCCGGAGTCACCTAGTGCAG,9660 fluorescence intensity (a.u.)
2,AGTCAATTCCCGTGTTCCACTTCACCCTTTTCCGGTCGTCCGGAGTCACCTAGTGCAG,10700 fluorescence intensity (a.u.)
3,ATCCACTACCCCAACTACATCGATCGATCACCGCATTTTCCGGAGTCACCTAGTGCAG,10000 fluorescence intensity (a.u.)
4,CTCTTAGCGGTTTTGTCTGATGTGGTGGCTGAGTCATCGTCGGAGTCACCTAGTGCAG,9520 fluorescence intensity (a.u.)
5,GATTGGCACTAAAATTCTGTTTAGACTACCGTTTGGTTTTCGGAGTCACCTAGTGCAG,8320 fluorescence intensity (a.u.)
6,ACTGATTTGTTTGAGTCAAACCTATTGTTCATATATGCCACGGAGTCACCTAGTGCAG,8730 fluorescence intensity (a.u.)
7,GCTACTACACCCTGGTCTGGTTGGTTTTCTGTGCGGCGCCCGGAGTCACCTAGTGCAG,10100 fluorescence intensity (a.u.)
8,TCAGGGCCGTGATCACGCAGACGTCTCTATTTGGGGTTTTCGGAGTCACCTAGTGCAG,8760 fluorescence intensity (a.u.)
9,GCTCGGGGCAGGGGCGGACGCTCAAGGGCCGGGACCTCCGCGGAGTCACCTAGTGCAG,8440 fluorescence intensity (a.u.)
10,ATATTCCGGAGGACTTCGCTTGTTTGTCTACCACACGGCCCGGAGTCACCTAGTGCAG,9190 fluorescence intensity (a.u.)
11,AATGGCATTGACCAGAGTTAACTATTGCCGTTTGTTGGTTCGGAGTCACCTAGTGCAG,8590 fluorescence intensity (a.u.)
12,AGCCTGCTCCGTTTTCCGTGCCAAAAGGATTATTTCCCGTCGGAGTCACCTAGTGCAG,8130 fluorescence intensity (a.u.)
13,GCGCTTAACTTTGATCGTCTGTCTTATTTAAATTTTTTTTCGGAGTCACCTAGTGCAG,11300 fluorescence intensity (a.u.)
14,TTTTAAACATGTTTGACCGTTCGTCTTATTCAAAAAATTTCGGAGTCACCTAGTGCAG,8310 fluorescence intensity (a.u.)
15,CAACCACCACCACCACCATGCGCCGCGGCCGCCGCCGATGCGGAGTCACCTAGTGCAG,8840 fluorescence intensity (a.u.)
16,GGACACACACCCACACGCGCATCCATCCATCCATCCATCCCGGAGTCACCTAGTGCAG,11500 fluorescence intensity (a.u.)
17,TCTTGTGTAGCTGCTCTGGCCGAATCTCGTAGTTATTAGACGGAGTCACCTAGTGCAG,8630 fluorescence intensity (a.u.)
18,CGTCACCAATCCGTGGCAACTCCCTCGCACCCCGATCCCACGGAGTCACCTAGTGCAG,8110 fluorescence intensity (a.u.)
19,ACAGCCTTTATCTTCCTCTTTTCTTCCTCGCTTGTGGCCCCGGAGTCACCTAGTGCAG,9360 fluorescence intensity (a.u.)
20,GGTGTGGGGCCCACCTGCAGCCTCACATCGGCACCAGCTGCGGAGTCACCTAGTGCAG,18600 fluorescence intensity (a.u.)
21,AACGTGTGTGTGTTTTTTATTACATAGGGCTCGGGGTCTACGGAGTCACCTAGTGCAG,9320 fluorescence intensity (a.u.)

row,Sequence,binding signal
1,GCCTGCTTCTCATCCTCCGCCGTCTCATGGGCCTCGTCCCCGGAGTCACCTAGTGCAG,12200 fluorescence intensity (a.u.)
2,CCTCATCTTGTCTTTCTCGACCTTAGCATTAACTCTCTCTCGGAGTCACCTAGTGCAG,8360 fluorescence intensity (a.u.)
3,ACGCGTCCATGTCCATCCCGACTATAAAATCCACCACGCGCGGAGTCACCTAGTGCAG,9920 fluorescence intensity (a.u.)
4,GTTCTTCTGCCTTGTCGGAAACTGCCTCCATTTCTTCACTCGGAGTCACCTAGTGCAG,9150 fluorescence intensity (a.u.)
5,CGACACTCTTACGTTGTATATCGTGCAACAGCAACTTTTTCGGAGTCACCTAGTGCAG,8810 fluorescence intensity (a.u.)
6,CATTTGTAGACCAATTATTTTTCATACTTTCAGCACGTTTCGGAGTCACCTAGTGCAG,8120 fluorescence intensity (a.u.)
7,CCCTCGGTCGCCGTTCGCCCTGGCCCGCCTGCGCCGCGCACGGAGTCACCTAGTGCAG,8520 fluorescence intensity (a.u.)
8,TACTTCCTCAGCTCTGTTCTCTTTGCCATTTGGAACATTACGGAGTCACCTAGTGCAG,11100 fluorescence intensity (a.u.)
9,AATTGACTTTTTTATGCTAATTTTCCCTCTAATTACTTGTCGGAGTCACCTAGTGCAG,18400 fluorescence intensity (a.u.)
10,ATACTTAGCTCATTTTTACCGGATAGTCCCCTTACTTATGCGGAGTCACCTAGTGCAG,8170 fluorescence intensity (a.u.)
11,ACGCCGCCGTTGCACTTCTCTGCACGCCATTGATCCGATCCGGAGTCACCTAGTGCAG,8480 fluorescence intensity (a.u.)
12,CCTTTGTGAAACTTGCAACTTTACAGTCCATTGTACGACTCGGAGTCACCTAGTGCAG,8430 fluorescence intensity (a.u.)
13,AAGACACAGCTTCAACACGTAACCTATGCACTACACACTACGGAGTCACCTAGTGCAG,11700 fluorescence intensity (a.u.)
14,ATTCCCTTTAAACTCTCCATCTCCGTCCATCAAGCTACCACGGAGTCACCTAGTGCAG,11200 fluorescence intensity (a.u.)
15,ATCCAGAATATCGTCTCATGTGCTTTCAATTTGAAAGCTTCGGAGTCACCTAGTGCAG,8390 fluorescence intensity (a.u.)
16,CCTCTTCGTTCCGCCTCCGCTTATCCGCTCTCGGAGGCCGCGGAGTCACCTAGTGCAG,9860 fluorescence intensity (a.u.)
17,GTATATATATGCGGCTGTGGTGTTTGTTGTTTTTTCTTTACGGAGTCACCTAGTGCAG,13500 fluorescence intensity (a.u.)
18,GTGCCTCATTTGTTGACTTTGCTAATCCCCAAATCTGATTCGGAGTCACCTAGTGCAG,9980 fluorescence intensity (a.u.)
19,TGTAATCCCCTTTCTCCTACTGCTCTCTGGTTATTATGTGCGGAGTCACCTAGTGCAG,9620 fluorescence intensity (a.u.)
20,GCCCGCGCATCCTTCGCTTGCCTCCCCACCAAGCATCACGCGGAGTCACCTAGTGCAG,8020 fluorescence intensity (a.u.)
21,GGCGCCACCACCGCCGCATCCGCCGCCGCCGCCACCGACGCGGAGTCACCTAGTGCAG,8600 fluorescence intensity (a.u.)
